The supplement of paper PMC10849652
The list shows a part of the results.

The chains behind the UniProt entries cited, without tags or fusion partners. Where a name states a change or a piece, a line headed by the entry shows the natural chain unless it says otherwise.
UniProt P12980: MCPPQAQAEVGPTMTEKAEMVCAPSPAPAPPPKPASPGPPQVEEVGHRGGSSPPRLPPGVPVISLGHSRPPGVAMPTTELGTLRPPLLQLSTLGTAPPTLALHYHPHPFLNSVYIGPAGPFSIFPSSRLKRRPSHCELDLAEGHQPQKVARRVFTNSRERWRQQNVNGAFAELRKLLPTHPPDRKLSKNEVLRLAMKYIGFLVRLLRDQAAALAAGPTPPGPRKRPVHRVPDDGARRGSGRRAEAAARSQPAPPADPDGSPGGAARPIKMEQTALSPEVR
UniProt P27816: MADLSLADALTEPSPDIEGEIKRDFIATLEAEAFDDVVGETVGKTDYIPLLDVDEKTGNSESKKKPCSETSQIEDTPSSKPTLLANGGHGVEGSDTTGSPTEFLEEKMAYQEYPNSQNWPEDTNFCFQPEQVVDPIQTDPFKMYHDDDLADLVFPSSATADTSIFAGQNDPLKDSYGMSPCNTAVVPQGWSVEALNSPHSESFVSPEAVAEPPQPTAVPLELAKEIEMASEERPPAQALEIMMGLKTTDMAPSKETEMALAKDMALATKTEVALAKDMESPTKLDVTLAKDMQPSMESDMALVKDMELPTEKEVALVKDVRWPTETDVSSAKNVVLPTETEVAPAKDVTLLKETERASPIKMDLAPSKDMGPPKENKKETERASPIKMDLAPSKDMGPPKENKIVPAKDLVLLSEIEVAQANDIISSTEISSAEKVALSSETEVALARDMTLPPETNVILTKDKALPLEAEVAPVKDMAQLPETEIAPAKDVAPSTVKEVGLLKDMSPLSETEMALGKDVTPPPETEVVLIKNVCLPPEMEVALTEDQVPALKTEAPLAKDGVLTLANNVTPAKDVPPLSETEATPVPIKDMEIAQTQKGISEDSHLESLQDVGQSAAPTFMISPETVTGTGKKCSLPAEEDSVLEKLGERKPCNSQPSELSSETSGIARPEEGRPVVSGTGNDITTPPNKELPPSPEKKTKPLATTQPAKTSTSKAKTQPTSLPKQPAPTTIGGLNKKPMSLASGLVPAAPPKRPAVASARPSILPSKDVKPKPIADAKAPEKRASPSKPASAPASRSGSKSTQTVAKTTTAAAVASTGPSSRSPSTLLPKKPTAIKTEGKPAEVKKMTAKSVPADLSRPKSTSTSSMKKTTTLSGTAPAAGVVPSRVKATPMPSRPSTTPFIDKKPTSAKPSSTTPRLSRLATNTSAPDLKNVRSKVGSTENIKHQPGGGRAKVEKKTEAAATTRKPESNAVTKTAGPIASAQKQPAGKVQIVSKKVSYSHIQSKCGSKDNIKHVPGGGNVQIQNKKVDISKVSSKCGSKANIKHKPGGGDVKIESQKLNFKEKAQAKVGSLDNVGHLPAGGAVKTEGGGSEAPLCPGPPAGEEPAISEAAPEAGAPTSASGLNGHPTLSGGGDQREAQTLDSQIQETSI
UniProt Q16553: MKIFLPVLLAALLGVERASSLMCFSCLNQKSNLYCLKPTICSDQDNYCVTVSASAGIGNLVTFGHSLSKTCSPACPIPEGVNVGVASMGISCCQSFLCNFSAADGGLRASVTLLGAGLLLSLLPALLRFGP
UniProt O60307: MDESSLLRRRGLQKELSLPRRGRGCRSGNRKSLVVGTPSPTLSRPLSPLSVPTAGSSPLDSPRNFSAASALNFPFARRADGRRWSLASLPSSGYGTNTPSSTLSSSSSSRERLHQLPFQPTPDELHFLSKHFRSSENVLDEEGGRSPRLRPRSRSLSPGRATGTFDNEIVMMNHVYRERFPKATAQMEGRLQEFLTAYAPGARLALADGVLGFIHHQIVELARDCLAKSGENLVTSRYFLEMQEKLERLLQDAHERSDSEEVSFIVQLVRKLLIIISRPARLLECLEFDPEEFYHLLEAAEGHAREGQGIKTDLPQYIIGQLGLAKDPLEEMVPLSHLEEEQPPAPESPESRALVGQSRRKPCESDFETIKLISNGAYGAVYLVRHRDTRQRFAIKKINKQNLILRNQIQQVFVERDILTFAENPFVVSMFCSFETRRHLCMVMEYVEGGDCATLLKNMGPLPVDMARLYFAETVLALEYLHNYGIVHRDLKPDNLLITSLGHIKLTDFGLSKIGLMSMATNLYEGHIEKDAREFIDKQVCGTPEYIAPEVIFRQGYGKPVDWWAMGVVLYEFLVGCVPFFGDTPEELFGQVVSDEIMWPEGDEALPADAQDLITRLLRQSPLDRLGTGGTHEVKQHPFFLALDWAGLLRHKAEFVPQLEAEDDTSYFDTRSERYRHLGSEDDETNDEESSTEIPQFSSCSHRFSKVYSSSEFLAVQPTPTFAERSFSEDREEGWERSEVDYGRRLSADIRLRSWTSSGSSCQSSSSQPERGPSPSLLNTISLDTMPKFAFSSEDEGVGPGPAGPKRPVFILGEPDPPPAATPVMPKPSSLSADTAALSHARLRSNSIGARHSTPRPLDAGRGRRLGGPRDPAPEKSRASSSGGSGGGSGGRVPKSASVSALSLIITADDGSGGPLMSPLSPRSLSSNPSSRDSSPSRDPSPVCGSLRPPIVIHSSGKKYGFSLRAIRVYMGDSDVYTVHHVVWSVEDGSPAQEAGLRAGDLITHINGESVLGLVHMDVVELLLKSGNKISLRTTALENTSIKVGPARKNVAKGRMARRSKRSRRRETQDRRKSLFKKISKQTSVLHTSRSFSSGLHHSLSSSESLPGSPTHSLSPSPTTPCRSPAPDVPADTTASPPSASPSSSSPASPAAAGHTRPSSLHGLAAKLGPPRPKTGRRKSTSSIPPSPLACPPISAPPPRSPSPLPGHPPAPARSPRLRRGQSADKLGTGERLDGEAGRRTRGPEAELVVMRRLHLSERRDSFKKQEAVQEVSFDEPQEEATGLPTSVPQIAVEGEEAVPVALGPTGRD
UniProt Q13164: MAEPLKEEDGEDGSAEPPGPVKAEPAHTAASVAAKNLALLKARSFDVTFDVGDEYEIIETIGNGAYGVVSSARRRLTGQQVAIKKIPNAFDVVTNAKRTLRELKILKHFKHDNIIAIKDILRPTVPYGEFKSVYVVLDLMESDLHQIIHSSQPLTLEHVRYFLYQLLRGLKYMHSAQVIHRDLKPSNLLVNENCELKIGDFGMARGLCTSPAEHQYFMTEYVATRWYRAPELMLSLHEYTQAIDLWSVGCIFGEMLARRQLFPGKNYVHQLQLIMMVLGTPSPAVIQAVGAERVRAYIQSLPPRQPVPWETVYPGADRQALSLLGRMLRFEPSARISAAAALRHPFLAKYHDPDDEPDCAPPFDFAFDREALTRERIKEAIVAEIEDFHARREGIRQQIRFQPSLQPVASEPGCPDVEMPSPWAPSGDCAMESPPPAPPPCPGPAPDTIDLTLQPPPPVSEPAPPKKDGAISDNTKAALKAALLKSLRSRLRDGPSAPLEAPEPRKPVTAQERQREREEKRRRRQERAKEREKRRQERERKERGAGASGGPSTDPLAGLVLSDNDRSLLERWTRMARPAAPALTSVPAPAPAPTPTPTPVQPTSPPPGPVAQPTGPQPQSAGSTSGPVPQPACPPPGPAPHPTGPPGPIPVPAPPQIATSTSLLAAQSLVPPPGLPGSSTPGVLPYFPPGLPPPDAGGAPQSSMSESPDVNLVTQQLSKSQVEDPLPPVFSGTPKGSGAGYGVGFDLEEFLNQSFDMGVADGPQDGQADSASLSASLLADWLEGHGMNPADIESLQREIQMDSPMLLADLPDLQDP
UniProt Q99683: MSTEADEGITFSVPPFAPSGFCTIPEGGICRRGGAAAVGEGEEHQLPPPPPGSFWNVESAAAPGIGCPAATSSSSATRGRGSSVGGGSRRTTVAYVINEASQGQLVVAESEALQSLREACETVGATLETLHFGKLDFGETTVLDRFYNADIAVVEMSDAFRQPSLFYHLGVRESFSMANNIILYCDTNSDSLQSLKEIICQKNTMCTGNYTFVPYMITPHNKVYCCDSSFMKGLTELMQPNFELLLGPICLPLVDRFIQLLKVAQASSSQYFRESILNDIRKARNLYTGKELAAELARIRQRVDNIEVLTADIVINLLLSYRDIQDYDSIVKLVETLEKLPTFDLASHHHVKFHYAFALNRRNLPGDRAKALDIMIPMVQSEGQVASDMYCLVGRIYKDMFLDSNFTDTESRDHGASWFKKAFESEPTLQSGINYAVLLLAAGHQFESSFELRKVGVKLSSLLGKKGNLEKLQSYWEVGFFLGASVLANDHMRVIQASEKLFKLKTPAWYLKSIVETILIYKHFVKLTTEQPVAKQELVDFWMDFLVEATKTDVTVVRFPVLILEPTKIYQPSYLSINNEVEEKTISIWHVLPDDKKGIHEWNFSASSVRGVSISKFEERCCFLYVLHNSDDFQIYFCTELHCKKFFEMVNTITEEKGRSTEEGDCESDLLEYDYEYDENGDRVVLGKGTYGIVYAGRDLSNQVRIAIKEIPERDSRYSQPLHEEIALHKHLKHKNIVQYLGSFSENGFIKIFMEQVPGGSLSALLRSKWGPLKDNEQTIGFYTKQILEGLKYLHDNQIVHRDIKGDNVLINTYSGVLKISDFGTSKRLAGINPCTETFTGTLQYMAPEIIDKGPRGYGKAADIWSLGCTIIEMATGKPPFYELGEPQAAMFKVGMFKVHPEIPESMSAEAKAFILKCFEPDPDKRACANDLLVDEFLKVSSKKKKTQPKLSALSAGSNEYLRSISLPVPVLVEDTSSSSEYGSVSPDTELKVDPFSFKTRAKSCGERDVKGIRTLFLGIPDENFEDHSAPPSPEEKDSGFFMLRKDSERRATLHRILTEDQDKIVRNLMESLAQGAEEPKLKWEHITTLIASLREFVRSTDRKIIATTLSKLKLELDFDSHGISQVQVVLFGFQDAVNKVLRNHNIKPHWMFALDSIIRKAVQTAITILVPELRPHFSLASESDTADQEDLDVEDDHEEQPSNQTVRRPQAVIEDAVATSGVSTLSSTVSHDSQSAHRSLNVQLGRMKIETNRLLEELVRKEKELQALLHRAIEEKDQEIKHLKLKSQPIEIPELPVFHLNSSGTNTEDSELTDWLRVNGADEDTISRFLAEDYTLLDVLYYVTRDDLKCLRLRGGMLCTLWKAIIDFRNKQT
UniProt O95819: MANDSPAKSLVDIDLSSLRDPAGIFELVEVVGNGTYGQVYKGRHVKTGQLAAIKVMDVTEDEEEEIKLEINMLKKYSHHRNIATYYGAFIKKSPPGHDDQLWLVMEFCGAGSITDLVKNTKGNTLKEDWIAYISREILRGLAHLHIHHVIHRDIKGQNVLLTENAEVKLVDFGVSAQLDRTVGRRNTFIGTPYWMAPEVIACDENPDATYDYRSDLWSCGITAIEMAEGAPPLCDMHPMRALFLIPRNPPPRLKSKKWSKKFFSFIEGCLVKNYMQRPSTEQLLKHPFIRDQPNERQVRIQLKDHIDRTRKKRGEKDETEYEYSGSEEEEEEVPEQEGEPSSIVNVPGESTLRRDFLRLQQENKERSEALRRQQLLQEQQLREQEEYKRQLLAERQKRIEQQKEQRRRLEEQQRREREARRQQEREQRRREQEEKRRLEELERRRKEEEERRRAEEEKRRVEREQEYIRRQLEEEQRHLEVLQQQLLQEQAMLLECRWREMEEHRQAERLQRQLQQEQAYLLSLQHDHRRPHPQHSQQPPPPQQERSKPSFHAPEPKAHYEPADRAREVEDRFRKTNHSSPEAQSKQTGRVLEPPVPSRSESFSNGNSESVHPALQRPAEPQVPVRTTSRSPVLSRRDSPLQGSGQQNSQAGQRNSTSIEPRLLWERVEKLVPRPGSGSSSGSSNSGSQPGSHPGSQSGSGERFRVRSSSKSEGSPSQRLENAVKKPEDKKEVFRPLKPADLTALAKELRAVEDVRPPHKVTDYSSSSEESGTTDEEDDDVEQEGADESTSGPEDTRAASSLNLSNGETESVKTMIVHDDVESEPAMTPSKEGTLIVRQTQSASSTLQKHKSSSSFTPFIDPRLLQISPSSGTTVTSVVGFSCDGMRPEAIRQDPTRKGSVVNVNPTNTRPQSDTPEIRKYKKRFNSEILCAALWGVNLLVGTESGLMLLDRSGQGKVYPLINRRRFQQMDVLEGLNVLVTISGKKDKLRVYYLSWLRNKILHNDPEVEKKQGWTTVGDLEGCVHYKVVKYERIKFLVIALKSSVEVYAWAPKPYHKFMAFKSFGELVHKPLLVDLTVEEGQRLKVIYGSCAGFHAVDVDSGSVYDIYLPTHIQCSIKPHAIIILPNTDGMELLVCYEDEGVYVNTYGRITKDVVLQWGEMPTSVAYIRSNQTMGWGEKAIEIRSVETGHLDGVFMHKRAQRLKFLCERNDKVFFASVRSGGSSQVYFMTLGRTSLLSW
UniProt Q86UD3: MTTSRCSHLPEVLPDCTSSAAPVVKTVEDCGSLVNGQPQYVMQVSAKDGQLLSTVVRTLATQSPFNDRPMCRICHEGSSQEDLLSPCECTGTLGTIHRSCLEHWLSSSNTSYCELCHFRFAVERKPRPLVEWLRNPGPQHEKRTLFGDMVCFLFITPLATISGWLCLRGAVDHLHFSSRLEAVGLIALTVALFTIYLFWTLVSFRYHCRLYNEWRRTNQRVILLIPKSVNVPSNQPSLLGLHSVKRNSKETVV

Assays:
Test in all cases: log2 fold change, soluble protein after heating vs DMSO (PISA); higher = thermal stabilisation; K562 lysate, 10 uM; active = over 0.2 and 3.5 SD of the protein, either way, in both replicates (recomputed)
vorinostat = compound: O=C(CCCCCCC(=O)Nc1ccccc1)NO [vorinostat]
In short: (§1)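 Values give the log-two fold change in thermal stability against solvent controls, from duplicates. Crude K562 extract at 1 mg/mL protein, made by dounce homogenisation in PBS pH 7.4 with 1 mM MgCl2, was treated with 10 μM compound for 30 min. After 3 min heating across 48°C-58°C, aliquots were pooled, adjusted to 0.5% NP-40 at 4°C and centrifuged at 21,000xg for 90 min. The supernatant was measured by TMTpro 16plex LC-MS/MS with channel sums equalised.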

silmitasertib = compound: O=C(O)c1ccc2c(c1)nc(Nc1cccc(Cl)c1)c1ccncc12 [silmitasertib]
In short: as §1

[1] = compound: O=C1NC(=O)C(c2cnc3ccccn23)=C1c1cn2c3c(cc(F)cc13)CN(C(=O)N1CCCCC1)CC2
In short: as §1

entospletinib = compound: c1cn2cc(-c3ccc4cn[nH]c4c3)nc(Nc3ccc(N4CCOCC4)cc3)c2n1 [entospletinib]
In short: as §1

[2] = compound: NCC(=O)Nc1ccc(-n2nc(C(F)(F)F)cc2-c2ccc3c(ccc4ccccc43)c2)cc1
In short: as §1

Measured: log2 fold change

MAFG (UniProt O15525)
inactive: vorinostat 0.069 | silmitasertib -0.001 | [1] -0.074 | entospletinib -0.054

MAGEF1 (UniProt Q9HAY2)
inactive: vorinostat 0.023 | silmitasertib -0.183

MACF1 isoform 3 (UniProt Q9UPN3)
inactive: [2] -0.004 | vorinostat -0.062 | silmitasertib 0.008 | [1] -0.005 | entospletinib -0.01

LYL1 (UniProt P12980)
inactive: vorinostat -0.466 | silmitasertib 0.081 | [1] 0.03

LYRM7 (UniProt Q5U5X0)
inactive: [2] -0.01 | vorinostat -0.025 | silmitasertib 0.03 | [1] -0.005 | entospletinib 0.073

MAPRE1 (UniProt Q15691)
inactive: [2] 0.002 | vorinostat 0.081 | silmitasertib -0.006 | [1] 0.016 | entospletinib 0.01

MAPK11 (UniProt Q15759)
inactive: vorinostat -0.463 | silmitasertib -0.076 | [1] 0.184

MAGEA2 (UniProt P43356)
inactive: entospletinib -0.06

MAN2B2 (UniProt Q9Y2E5)
inactive: vorinostat 0.117 | silmitasertib -0.014 | [1] -0.005 | entospletinib 0.019

MAP4 isoform 5 (UniProt P27816)
inactive: [2] 0.001 | vorinostat 0.359 | silmitasertib 0.074 | [1] 0.087 | entospletinib 0.063

MAP3K6 (UniProt O95382)
inactive: [2] -0.088 | entospletinib -0.043

MANBAL (UniProt Q9NQG1)
inactive: vorinostat 0.113 | silmitasertib -0.032 | entospletinib -0.01

MAP3K4 isoform 2 (UniProt Q9Y6R4)
inactive: [1] 0.034

LY6E (UniProt Q16553)
inactive: [2] 0.165 | entospletinib -0.013

MAST3 (UniProt O60307)
inactive: vorinostat 0.168 | silmitasertib 0.078 | entospletinib -0.056

Copied from the results shown (2 entries):
MAPRE1 (UniProt Q15691)
inactive: [2] 0.002 | vorinostat 0.081 | silmitasertib -0.006 | [1] 0.016 | entospletinib 0.01

MAPK11 (UniProt Q15759)
inactive: vorinostat -0.463 | silmitasertib -0.076 | [1] 0.184

Additional entries.

LTBP4 (UniProt Q8N2S1)
inactive: vorinostat 0.039 | silmitasertib -0.038 | [1] 0.017 | entospletinib 0

MAGEB2 (UniProt O15479)
inactive: [2] 0.044 | vorinostat -0.019 | silmitasertib -0.006 | [1] 0.005 | entospletinib 0.03

MAPK7 (UniProt Q13164)
inactive: vorinostat -0.102 | silmitasertib 0 | [1] -0.01 | entospletinib 0.029

MAGEA3 (UniProt P43357)
inactive: [2] 0.019 | [1] -0.038 | entospletinib -0.09

MAP3K1 (UniProt Q13233)
inactive: [2] -0.228 | [1] -0.068 | entospletinib -0.143

MAN2B1 (UniProt O00754)
inactive: [2] 0.008 | vorinostat 0.047 | silmitasertib 0 | [1] 0.004 | entospletinib -0.019

MAPKAP1 (UniProt Q9BPZ7)
inactive: vorinostat -0.111 | silmitasertib 0.187 | [1] -0.018 | entospletinib -0.157

MAP3K5 (UniProt Q99683)
inactive: [2] -0.216 | [1] 0.125 | entospletinib -0.145

MAN2A2 (UniProt P49641)
inactive: [2] -0.003 | vorinostat 0.088 | silmitasertib 0.057 | [1] -0.042 | entospletinib -0.004

MAPK14 (UniProt Q16539)
inactive: [2] -0.007 | vorinostat -0.294 | silmitasertib 0.279 | [1] 0.015 | entospletinib -0.005

LTBP4 isoform 2 (UniProt Q8N2S1)
inactive: [1] -0.031

MAGI3 isoform 1 (UniProt Q5TCQ9)
inactive: [2] 0.076 | vorinostat -0.116 | silmitasertib 0.012 | entospletinib -0.045

LTBP1 isoform 4 (UniProt Q14766)
inactive: vorinostat -0.038 | silmitasertib -0.097 | entospletinib 0.093

LTBR (UniProt P36941)
inactive: vorinostat 0.123 | silmitasertib -0.153 | [1] -0.139

LYPLA1, A0A087X1K9
inactive: [2] 0.026 | [1] -0.01 | entospletinib -0.365

MAP4K4 isoform 3 (UniProt O95819)
inactive: [2] 0.041 | vorinostat -0.145 | silmitasertib 0.045 | entospletinib 0.178

MAP4K3 (UniProt Q8IVH8)
inactive: [1] -0.038

MARCHF3 (UniProt Q86UD3)
inactive: [2] 0.007 | entospletinib -0.005

MAPK15 (UniProt Q8TD08)
inactive: vorinostat 0.024 | silmitasertib 0.271 | [1] 0.311

MAP4K4 isoform 6 (UniProt O95819)
inactive: vorinostat -0.134 | silmitasertib 0.02 | entospletinib 0.094

LYN isoform 2 (UniProt P07948)
inactive: vorinostat -0.118 | silmitasertib 0.049 | [1] -0.31 | entospletinib 0.129

MACF1 (UniProt E9PLY5)
inactive: [1] -0.064
